Experimental data from the supplement of paper PMC10849652.
The list shows a part of the results.

The chains behind the UniProt entries cited, without tags or fusion partners. Where a name states a change or a piece, a line headed by the entry shows the natural chain unless it says otherwise.
UniProt Q99952: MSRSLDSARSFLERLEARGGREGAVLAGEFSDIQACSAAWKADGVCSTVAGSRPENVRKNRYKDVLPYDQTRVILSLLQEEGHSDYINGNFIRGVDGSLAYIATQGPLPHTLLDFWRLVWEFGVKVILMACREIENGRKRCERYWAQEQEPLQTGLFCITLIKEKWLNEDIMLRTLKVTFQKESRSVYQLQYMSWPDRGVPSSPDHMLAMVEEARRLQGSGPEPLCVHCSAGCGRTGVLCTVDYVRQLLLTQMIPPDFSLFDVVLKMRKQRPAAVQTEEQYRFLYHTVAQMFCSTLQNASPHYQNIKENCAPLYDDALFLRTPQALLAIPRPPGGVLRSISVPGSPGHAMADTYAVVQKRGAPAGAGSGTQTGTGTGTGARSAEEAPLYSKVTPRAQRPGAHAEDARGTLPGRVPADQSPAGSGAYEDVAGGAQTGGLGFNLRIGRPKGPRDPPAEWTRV
UniProt Q86Y79: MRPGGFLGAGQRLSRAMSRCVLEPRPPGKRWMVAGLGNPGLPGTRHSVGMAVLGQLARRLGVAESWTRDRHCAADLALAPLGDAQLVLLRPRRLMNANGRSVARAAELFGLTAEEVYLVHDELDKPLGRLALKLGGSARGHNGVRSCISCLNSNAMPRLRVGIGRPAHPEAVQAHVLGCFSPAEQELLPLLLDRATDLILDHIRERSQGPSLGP
UniProt P23219, whole entry, looked up: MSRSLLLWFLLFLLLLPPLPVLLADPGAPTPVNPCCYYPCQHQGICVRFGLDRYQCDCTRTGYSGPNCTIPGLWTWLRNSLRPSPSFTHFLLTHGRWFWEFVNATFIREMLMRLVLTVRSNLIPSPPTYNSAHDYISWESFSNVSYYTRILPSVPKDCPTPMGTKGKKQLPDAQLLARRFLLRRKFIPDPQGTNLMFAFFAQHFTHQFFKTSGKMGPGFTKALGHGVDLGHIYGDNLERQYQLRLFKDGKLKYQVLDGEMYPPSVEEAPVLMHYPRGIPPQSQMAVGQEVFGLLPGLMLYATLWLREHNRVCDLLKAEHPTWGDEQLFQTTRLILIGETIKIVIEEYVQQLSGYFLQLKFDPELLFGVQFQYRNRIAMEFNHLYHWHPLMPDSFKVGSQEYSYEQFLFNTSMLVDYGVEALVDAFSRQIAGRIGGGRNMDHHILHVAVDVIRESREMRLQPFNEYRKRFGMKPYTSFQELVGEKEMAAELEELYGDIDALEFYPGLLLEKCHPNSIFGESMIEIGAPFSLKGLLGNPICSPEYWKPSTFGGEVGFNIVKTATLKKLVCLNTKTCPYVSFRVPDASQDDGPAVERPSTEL
UniProt Q15678: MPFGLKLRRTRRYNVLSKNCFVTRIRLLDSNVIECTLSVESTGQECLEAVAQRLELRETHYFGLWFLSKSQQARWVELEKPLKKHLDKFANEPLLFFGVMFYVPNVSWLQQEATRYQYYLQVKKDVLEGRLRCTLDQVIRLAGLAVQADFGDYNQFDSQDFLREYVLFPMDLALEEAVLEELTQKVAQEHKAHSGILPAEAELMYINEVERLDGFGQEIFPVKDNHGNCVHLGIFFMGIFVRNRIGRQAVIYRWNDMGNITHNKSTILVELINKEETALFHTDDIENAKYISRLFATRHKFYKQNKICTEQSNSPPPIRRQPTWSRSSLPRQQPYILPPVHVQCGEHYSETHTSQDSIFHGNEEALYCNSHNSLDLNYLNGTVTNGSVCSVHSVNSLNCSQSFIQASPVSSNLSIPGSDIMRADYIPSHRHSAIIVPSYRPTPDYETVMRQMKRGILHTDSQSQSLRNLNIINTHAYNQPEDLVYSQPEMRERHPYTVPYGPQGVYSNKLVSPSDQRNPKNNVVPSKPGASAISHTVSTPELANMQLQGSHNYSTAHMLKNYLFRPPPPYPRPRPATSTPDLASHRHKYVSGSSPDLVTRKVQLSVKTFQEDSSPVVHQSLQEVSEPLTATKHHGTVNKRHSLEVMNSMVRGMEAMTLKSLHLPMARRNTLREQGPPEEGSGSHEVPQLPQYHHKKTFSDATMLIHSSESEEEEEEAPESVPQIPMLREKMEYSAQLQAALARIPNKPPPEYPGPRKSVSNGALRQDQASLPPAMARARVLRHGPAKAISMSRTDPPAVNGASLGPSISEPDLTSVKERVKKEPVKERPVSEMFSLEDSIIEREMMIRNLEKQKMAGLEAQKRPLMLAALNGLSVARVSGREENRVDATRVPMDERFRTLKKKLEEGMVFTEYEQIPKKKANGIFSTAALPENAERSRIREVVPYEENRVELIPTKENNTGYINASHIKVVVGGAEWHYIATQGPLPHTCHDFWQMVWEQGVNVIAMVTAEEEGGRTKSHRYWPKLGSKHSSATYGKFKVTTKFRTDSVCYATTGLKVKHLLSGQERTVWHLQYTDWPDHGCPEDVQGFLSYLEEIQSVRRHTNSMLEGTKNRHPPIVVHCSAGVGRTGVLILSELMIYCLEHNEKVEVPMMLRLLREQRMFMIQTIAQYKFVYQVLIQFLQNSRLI
UniProt P28062: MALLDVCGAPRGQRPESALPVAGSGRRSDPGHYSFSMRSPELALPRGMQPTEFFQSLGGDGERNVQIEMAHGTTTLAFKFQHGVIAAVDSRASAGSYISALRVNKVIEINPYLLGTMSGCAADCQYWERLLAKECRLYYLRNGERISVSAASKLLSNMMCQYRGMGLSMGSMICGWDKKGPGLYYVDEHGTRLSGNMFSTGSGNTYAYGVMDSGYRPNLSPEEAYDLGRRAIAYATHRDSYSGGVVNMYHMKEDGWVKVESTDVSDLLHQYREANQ
UniProt P06454: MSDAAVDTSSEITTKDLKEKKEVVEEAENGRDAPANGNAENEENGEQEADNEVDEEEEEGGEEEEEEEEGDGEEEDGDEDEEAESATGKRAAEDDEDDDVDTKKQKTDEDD
UniProt Q05397, whole entry, looked up: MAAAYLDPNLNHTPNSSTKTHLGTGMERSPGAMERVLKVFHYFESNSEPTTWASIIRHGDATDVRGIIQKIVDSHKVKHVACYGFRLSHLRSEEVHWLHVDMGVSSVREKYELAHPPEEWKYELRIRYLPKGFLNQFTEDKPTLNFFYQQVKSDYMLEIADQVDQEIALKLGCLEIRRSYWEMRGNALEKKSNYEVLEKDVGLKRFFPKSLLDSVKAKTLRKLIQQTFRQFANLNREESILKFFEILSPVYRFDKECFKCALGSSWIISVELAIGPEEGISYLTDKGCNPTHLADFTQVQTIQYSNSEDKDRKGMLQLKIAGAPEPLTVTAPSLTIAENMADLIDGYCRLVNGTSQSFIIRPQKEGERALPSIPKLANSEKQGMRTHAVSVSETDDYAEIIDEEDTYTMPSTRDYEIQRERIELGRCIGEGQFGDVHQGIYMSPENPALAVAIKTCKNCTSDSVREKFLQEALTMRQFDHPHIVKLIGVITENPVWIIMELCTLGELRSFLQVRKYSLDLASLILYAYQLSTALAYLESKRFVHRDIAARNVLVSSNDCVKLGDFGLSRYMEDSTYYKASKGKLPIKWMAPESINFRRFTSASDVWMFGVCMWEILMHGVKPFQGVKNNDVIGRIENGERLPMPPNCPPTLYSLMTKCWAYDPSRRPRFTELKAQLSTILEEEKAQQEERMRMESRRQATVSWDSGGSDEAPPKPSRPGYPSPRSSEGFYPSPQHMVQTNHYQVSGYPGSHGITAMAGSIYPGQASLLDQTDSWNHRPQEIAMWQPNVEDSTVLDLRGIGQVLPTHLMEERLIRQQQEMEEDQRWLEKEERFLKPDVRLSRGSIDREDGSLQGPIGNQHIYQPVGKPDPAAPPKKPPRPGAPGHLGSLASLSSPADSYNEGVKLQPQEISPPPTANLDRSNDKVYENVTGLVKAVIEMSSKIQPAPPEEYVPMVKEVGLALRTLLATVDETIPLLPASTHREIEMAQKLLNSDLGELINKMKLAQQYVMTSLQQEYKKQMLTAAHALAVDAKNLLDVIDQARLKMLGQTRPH
UniProt P60484: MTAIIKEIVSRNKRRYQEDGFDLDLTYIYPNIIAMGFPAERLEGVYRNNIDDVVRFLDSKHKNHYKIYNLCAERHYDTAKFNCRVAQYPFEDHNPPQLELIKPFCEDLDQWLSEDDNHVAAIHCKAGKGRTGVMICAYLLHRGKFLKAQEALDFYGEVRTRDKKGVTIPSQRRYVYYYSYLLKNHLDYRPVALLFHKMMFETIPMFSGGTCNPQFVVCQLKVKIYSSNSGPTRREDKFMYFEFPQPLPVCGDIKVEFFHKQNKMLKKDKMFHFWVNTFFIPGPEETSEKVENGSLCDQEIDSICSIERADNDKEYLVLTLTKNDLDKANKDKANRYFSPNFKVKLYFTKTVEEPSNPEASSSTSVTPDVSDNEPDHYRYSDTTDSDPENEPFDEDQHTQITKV
UniProt Q9BRX8: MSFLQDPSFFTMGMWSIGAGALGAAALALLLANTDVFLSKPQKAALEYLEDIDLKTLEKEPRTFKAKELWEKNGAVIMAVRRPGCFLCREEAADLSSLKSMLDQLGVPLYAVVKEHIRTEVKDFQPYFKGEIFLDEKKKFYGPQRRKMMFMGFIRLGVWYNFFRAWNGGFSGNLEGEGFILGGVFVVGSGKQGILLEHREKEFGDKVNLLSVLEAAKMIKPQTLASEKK
UniProt Q9ULL5: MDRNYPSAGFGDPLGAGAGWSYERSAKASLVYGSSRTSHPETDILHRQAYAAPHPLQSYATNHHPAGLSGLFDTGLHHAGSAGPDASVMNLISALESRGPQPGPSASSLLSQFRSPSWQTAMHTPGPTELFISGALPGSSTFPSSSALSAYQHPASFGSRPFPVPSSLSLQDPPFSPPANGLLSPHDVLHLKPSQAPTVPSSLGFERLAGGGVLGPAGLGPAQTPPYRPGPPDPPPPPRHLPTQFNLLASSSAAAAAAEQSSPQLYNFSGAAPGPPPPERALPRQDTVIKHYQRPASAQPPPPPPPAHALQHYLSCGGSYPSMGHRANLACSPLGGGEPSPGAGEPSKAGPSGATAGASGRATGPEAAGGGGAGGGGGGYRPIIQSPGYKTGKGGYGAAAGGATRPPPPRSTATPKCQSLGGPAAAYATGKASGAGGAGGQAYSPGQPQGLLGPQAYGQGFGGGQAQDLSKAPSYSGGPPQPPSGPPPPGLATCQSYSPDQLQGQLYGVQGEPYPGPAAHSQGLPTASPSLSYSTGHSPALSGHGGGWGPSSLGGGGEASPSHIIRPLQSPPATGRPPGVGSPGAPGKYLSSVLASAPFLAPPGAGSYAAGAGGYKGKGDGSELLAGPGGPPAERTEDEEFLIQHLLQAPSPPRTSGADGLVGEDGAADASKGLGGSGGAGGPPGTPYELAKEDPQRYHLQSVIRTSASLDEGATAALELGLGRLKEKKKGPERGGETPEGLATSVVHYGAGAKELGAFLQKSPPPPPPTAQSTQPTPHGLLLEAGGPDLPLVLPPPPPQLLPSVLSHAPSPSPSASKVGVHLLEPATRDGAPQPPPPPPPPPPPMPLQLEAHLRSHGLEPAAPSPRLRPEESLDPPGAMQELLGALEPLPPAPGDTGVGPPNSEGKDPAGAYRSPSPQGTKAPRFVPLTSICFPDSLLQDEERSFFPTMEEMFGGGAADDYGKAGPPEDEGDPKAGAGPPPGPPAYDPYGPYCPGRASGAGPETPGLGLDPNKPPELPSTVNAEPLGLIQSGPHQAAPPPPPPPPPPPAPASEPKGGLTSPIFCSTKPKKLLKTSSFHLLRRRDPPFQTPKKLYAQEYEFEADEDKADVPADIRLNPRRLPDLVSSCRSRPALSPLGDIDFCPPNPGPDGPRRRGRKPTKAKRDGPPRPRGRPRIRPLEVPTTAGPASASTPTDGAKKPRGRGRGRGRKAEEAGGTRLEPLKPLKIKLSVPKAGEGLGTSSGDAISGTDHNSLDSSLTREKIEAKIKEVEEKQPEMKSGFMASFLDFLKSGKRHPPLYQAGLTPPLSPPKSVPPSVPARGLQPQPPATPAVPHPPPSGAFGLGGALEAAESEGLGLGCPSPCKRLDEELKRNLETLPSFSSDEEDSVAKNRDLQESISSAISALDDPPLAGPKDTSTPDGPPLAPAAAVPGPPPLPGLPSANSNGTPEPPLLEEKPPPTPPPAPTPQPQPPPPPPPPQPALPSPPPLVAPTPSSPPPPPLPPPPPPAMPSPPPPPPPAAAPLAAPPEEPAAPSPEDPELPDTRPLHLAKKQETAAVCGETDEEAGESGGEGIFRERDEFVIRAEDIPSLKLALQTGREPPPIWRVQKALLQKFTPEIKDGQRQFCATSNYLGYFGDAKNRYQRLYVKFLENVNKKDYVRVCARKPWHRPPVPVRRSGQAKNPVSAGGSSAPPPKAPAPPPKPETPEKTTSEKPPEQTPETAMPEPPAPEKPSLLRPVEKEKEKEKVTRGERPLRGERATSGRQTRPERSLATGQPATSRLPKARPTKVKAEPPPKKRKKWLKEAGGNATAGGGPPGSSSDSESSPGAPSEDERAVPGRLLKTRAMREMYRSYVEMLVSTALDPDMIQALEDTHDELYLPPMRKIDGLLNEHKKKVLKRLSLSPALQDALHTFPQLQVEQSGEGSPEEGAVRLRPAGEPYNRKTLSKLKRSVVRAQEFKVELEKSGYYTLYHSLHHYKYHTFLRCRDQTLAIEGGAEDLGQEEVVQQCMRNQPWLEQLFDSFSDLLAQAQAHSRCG

What was measured:
Experiment in all cases: log2 fold change, soluble protein after heating vs DMSO (PISA); higher = thermal stabilisation; K562 lysate, 10 uM; active = over 0.2 and 3.5 SD of the protein, either way, in both replicates (recomputed)
vemurafenib = compound: CCCS(=O)(=O)Nc1ccc(F)c(C(=O)c2c[nH]c3ncc(-c4ccc(Cl)cc4)cc23)c1F [vemurafenib]
Procedure, shortened: (§1)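 A 30 min treatment with 10 μM compound was applied to crude K562 extract at 1 mg/mL protein in PBS pH 7.4 with 1 mM MgCl2. Heating for 3 min spanned 48°C-58°C, after which aliquots were pooled, adjusted to 0.5% NP-40 at 4°C and spun at 21,000xg for 90 min. TMTpro 16plex LC-MS/MS of the supernatant, with channel sums equalised, gave values recorded as log-two fold change in thermal stability against solvent controls, from duplicates.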

[1] = compound: CCCS(=O)(=O)Nc1ccc(F)c(C(=O)c2c[nH]c3ncc(Cl)cc23)c1F
Procedure, shortened: as §1

barasertib = compound: CCN(CCCOc1ccc2c(Nc3cc(CC(=O)Nc4cccc(F)c4)[nH]n3)ncnc2c1)CCOP(=O)(O)O [barasertib]
Procedure, shortened: as §1

[2] = compound: CC[C@@H]1C(=O)N(C)c2cnc(Nc3ccc(C(=O)NC4CCN(C)CC4)cc3OC)nc2N1C1CCCC1
Procedure, shortened: as §1

volasertib = compound: CC[C@@H]1C(=O)N(C)c2cnc(Nc3ccc(C(=O)N[C@H]4CC[C@H](N5CCN(CC6CC6)CC5)CC4)cc3OC)nc2N1C(C)C [volasertib]
Procedure, shortened: as §1

[3] = compound: CCn1c(C(=O)N(C2CC2)C2CC2)cc2c3c(ncn3C)c(Nc3cc(C)n(C)n3)nc21
Procedure, shortened: as §1

[4] = compound: CCn1cc(-c2ccnc3[nH]c(-c4cccc(CN(C)C)c4)cc23)c(-c2ccc(NC(=O)N(C)C)cc2)n1
Procedure, shortened: as §1

[5] = compound: CN1CCC(CNc2ccc3ncc(-c4cccc(OC(F)(F)F)c4)n3n2)CC1
Procedure, shortened: as §1

saracatinib = compound: CN1CCN(CCOc2cc(OC3CCOCC3)c3c(Nc4c(Cl)ccc5c4OCO5)ncnc3c2)CC1 [saracatinib]
Procedure, shortened: as §1

sotrastaurin = compound: CN1CCN(c2nc(C3=C(c4c[nH]c5ccccc45)C(=O)NC3=O)c3ccccc3n2)CC1 [sotrastaurin]
Procedure, shortened: as §1

Measured: log2 fold change

PRPS1 (UniProt B1ALA9)
inactive: vemurafenib 0.009 | [1] 0.003 | barasertib 0.018 | [2] 0.03 | volasertib 0.025 | [3] 0 | [4] -0.001 | [5] 0.036 | saracatinib -0.046 | sotrastaurin -0.073

PRUNE1 (UniProt Q86TP1)
inactive: vemurafenib 0.036 | [1] 0.017 | barasertib 0.013 | [2] -0.023 | volasertib -0.002 | [3] 0 | [4] 0.011 | [5] -0.013 | saracatinib -0.001 | sotrastaurin -0.012

PTCD2 (UniProt Q8WV60)
inactive: vemurafenib -0.202 | [1] -0.172 | [2] -0.089 | volasertib 0.079 | [3] 0.07 | saracatinib -0.002 | sotrastaurin 0.055

PTMS (UniProt P20962)
inactive: vemurafenib 0.029 | [1] -0.025 | barasertib -0.003 | [2] -0.003 | volasertib 0.067 | [3] -0.021 | [4] 0.006 | [5] 0.011 | saracatinib -0.016 | sotrastaurin 0.069

PSTPIP2 (UniProt Q9H939)
inactive: vemurafenib 0.022 | [1] 0.018 | barasertib 0.01 | [2] -0.029 | volasertib -0.037 | [3] -0.007 | [4] 0.063 | [5] -0.09 | saracatinib 0.032 | sotrastaurin 0

PUF60 isoform 2 (UniProt Q9UHX1)
inactive: vemurafenib -0.126 | [1] 0.101 | barasertib -0.057 | [2] 0.047 | volasertib 0.021 | [3] -0.062 | [5] -0.115 | sotrastaurin -0.043
active: [4] 1.25

PRRC2C isoform 7 (UniProt Q9Y520)
inactive: vemurafenib 0.009 | [1] 0.01 | barasertib 0.019 | [2] 0.078 | volasertib 0.013 | [3] 0.004 | [4] -0.009 | [5] 0.023 | saracatinib 0.011 | sotrastaurin -0.011

PTPN12 (UniProt Q05209)
inactive: vemurafenib 0.011 | [1] 0.019 | barasertib 0.027 | [2] -0.019 | volasertib -0.011 | [3] -0.02 | [4] -0.005 | [5] -0.021 | saracatinib 0.002 | sotrastaurin 0.001

PTPDC1 isoform 2 (UniProt A2A3K4)
inactive: vemurafenib 0.313 | barasertib -0.05 | sotrastaurin 0.011

PSMF1 (UniProt Q5QPM7)
inactive: vemurafenib -0.001 | [2] 0.274 | [4] -0.075 | [5] -0.021 | sotrastaurin 0.006

PTPN18 (UniProt Q99952)
inactive: vemurafenib 0.046 | [1] 0.008 | barasertib 0.248 | [2] -0.033 | volasertib 0.053 | [3] -0.075 | saracatinib -0.092 | sotrastaurin 0.001

PSMD4 (UniProt Q5VWC4)
inactive: vemurafenib 0.069 | barasertib -0.001 | [3] 0.039 | [4] -0.188 | [5] -0.05 | sotrastaurin 0.038

PTRH1 (UniProt Q86Y79)
inactive: vemurafenib 0.189 | [2] 0.049 | [3] -0.009 | [4] -0.473 | [5] -0.033 | sotrastaurin -0.061

PTPN2 (UniProt P17706)
inactive: vemurafenib 0.027 | [1] -0.017 | barasertib 0.051 | [2] -0.028 | volasertib 0 | [3] 0.005 | [4] -0.084 | [5] -0.031 | saracatinib -0.052 | sotrastaurin 0.011

PSMB2, A0A087WVV1
inactive: vemurafenib 0.098 | barasertib 0.136 | [2] 0.053 | [4] -0.015 | [5] 0.057 | sotrastaurin 0.15

PRRC2A (UniProt P48634)
inactive: vemurafenib -0.006 | [1] 0.008 | barasertib -0.013 | [2] 0.107 | volasertib 0.012 | [3] 0.013 | [4] 0.05 | [5] 0.008 | saracatinib 0.049 | sotrastaurin -0.014

PTGFRN (UniProt Q9P2B2)
inactive: vemurafenib -0.002 | [1] 0.016 | barasertib 0.016 | [2] 0.019 | volasertib 0.013 | [3] -0.009 | [4] -0.013 | [5] 0.051 | saracatinib 0.016 | sotrastaurin 0.05

PRR14L (UniProt Q5THK1)
inactive: vemurafenib 0.06 | barasertib 0.015 | [2] -0.019 | [3] -0.028 | [4] 0.205 | [5] -0.093 | saracatinib -0.069 | sotrastaurin -0.038

PTGS1 isoform 6 (UniProt P23219)
active: [4] -0.279
inactive: vemurafenib 0.058 | [1] 0.076 | barasertib 0.039 | [2] 0.005 | volasertib -0.022 | [3] -0.012 | [5] 0.134 | saracatinib -0.033 | sotrastaurin 0.065

PRR4 (UniProt Q16378)
inactive: vemurafenib 0.367 | [1] 0.038 | [2] -0.21 | volasertib -0.046 | [3] -0.005 | [4] 0.358
active: [5] -1.21

PTPRJ (UniProt Q12913)
inactive: vemurafenib -0.153 | [1] -0.012 | barasertib -0.014 | [2] 0.006 | volasertib 0.011 | [3] 0.07 | [4] -0.033 | [5] 0.13 | sotrastaurin 0.113

PTGER3 isoform 2 (UniProt P43115)
inactive: [1] 0.128 | volasertib -0.06 | sotrastaurin 0.117

PSMC5 (UniProt J3KRP2)
inactive: [1] -0.09 | volasertib -0.047

PUM2 (UniProt C9JW01)
inactive: [4] 0.03 | [5] 0.201

PTPN14 (UniProt Q15678)
inactive: [2] 0.346 | sotrastaurin 0.101

PSMA7 isoform 2 (UniProt O14818)
inactive: [2] 0.09 | saracatinib 0.043 | sotrastaurin 0.193

PTGES3 isoform 4 (UniProt Q15185)
inactive: barasertib -0.036 | [3] 0.159

PSMB8 (UniProt P28062)
inactive: [1] 0.064 | barasertib 0.009 | [2] 0.041 | volasertib 0.012 | [3] 0.034 | [4] -0.013 | [5] 0.03 | saracatinib -0.048 | sotrastaurin -0.046

PSMA7 (UniProt H0Y586)
inactive: [1] 0.099 | barasertib -0.135 | volasertib -0.03 | [4] -0.204 | [5] 0.123 | sotrastaurin 0.04

PTMA isoform 2 (UniProt P06454)
inactive: barasertib -0.09

PTK2 isoform 2 (UniProt Q05397)
inactive: [1] -0.101 | barasertib 0.05 | [2] -0.076 | volasertib -0.387 | saracatinib -0.063

PTPRB isoform 3 (UniProt P23467)
inactive: [1] 0.202 | barasertib 0.211 | volasertib 0.093 | saracatinib -0.093

PTPN11 (UniProt Q06124)
inactive: [4] -0.067 | [5] 0.012

PSTK (UniProt H7BYY4)
inactive: [4] 0.1 | [5] -0.207 | saracatinib -0.162

PRSS8 (UniProt Q16651)
inactive: [3] -0.223 | [4] 0.092 | [5] 0.03 | saracatinib 0.002 | sotrastaurin 0.059

PTPA (UniProt A6PVN8)
inactive: [2] -0.25

PSEN2 (UniProt P49810)
inactive: barasertib -0.01 | [2] 0.036 | [3] -0.044 | [4] -0.189 | [5] 0.051 | saracatinib -0.032 | sotrastaurin 0.132

PTPN11, A0A0U1RRI0
inactive: [1] -0.036 | volasertib 0

PWWP2B (UniProt Q6NUJ5)
inactive: [1] -0.071 | volasertib -0.032 | [4] -0.187 | [5] 0.02 | saracatinib -0.076

PWWP2A (UniProt Q96N64)
inactive: [4] -0.157 | [5] 0.337

PTEN isoform 2 (UniProt P60484)
inactive: [1] 0.043 | barasertib 0.018 | [2] 0.21 | volasertib -0.055 | [3] -0.002 | [4] -0.088 | [5] 0.14 | saracatinib 0.093 | sotrastaurin 0.094

PRSS50 (UniProt Q9UI38)
inactive: [1] 0.014 | barasertib 0.13 | [2] 0.073 | volasertib -0.033 | [4] -0.105 | [5] 0.08 | saracatinib 0.032

PTPRF (UniProt P10586)
inactive: vemurafenib 0.263 | [4] -0.015 | [5] 0.068 | sotrastaurin 0.074

PTOV1 (UniProt Q86YD1)
inactive: vemurafenib 0.18 | [4] 0.063 | [5] -0.013 | saracatinib -0.071 | sotrastaurin 0.068

Taken from above (2 entries):
PWWP2A (UniProt Q96N64)
inactive: [4] -0.157 | [5] 0.337

PTEN isoform 2 (UniProt P60484)
inactive: [1] 0.043 | barasertib 0.018 | [2] 0.21 | volasertib -0.055 | [3] -0.002 | [4] -0.088 | [5] 0.14 | saracatinib 0.093 | sotrastaurin 0.094

Later entries

PSMD6 (UniProt Q15008)
inactive: [1] 0.112 | barasertib -0.068 | volasertib -0.058 | [4] 0.157 | [5] -0.055 | sotrastaurin -0.128

PTGDR2 (UniProt Q9Y5Y4)
inactive: [4] -0.19 | [5] 0.03

PSMD1, A0A087WW66
inactive: [1] -0.15 | barasertib -0.056 | volasertib -0.186

PTBP1, A0A0U1RRM4
inactive: [1] 0.069 | volasertib 0.082

PRXL2A (UniProt Q9BRX8)
inactive: barasertib 0.063 | [3] -0.14 | [4] 0.089 | [5] 0.116 | saracatinib 0.005

PRRC2B (UniProt H0Y412)
inactive: [3] 0.009

PSIP1 (UniProt V9GYT7)
inactive: barasertib 0.134 | [3] 0.013 | [4] -0.119 | [5] -0.12 | sotrastaurin 0.006

PRR16 (UniProt Q569H4)
inactive: sotrastaurin 0.021

PRRG1 (UniProt O14668)
inactive: [3] 0.052

PRSS2 (UniProt P07478)
inactive: [1] -0.033 | volasertib -0.057 | [4] -0.024 | [5] 0.06 | saracatinib 0.057

PRR12 (UniProt Q9ULL5)
inactive: barasertib 0.064 | [3] 0.12 | [4] -0.274 | [5] 0.032 | sotrastaurin 0.001

PTPA (UniProt Q5T949)
inactive: [1] 0.043 | volasertib -0.142

PSME3 (UniProt K7EMD0)
inactive: [1] -0.041 | volasertib -0.009
